In PubChem BioAssay AID256 (DTP/NCI, 2004):
The list is a part of this screen's results and no random one: it is rich in T/C values a quarter to a half above the control, in often repeated tests (any T/C) and in doses without a T/C. Other doses and runs of a compound stand elsewhere. T/C: endpoint of the treated group in % of that of the vehicle group. Some entries give survivors of the animals treated and no T/C: the source holds a T/C of zero for them, seemingly a mark for toxic or unscored doses. Some doses without a T/C left all or most animals alive at the check, yet need not have been tolerated: survival well below the control is almost never listed, so the zero probably covers shortened survival too. Survivors were counted at the toxicity check, usually on the fifth day, unless a day is given; later deaths do not show. Schedules are NCI's codes, read here as Q, the interval in days (D) or hours (H), X, the number of doses. Some entries were tested several times; their values stand side by side, smallest first. For survival time, the PubChem record calls one and a half times the control and up active, and a quarter to a half above the control has no call in these data; cut-offs in other NCI protocols can differ. Signs of the kind (2×) count equal records among those shown. Some T/C values are followed by the survivors on the day toxicity was checked, most often the fifth; without a count, all were alive then.

System: CD2F1 mice, L1210 leukemia ip, survival T/C
Test: NCI In Vivo Anticancer Drug Screen. Data for tumor model L1210 Leukemia (intraperitoneal) in CD2F1 (CDF1) mice
Details: T/C endpoint: mean survival time, higher T/C = longer survival
Method in brief: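 Mice carrying a transplanted tumor received test compound or vehicle alone. The value is the measurement in the treated group divided by that in the vehicle-treated control group.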

[1] = dose: 6.25 mg/kg/injection, schedule: Q01DX009 (oral), vehicle: saline
[2] = dose: 16.0 mg/kg/injection, schedule: Q01DX005 (ip), vehicle: saline

## Nc1ncn(C2OC(CO)C(O)C2O)c(=O)n1 (stereo not given)
dose: 0.25 mg/kg/injection, schedule: Q03HX024 (ip), vehicle: saline
  T/C: 128 % of control
dose: 0.5 mg/kg/injection, schedule: Q01DX005 (ip), vehicle: water
  T/C: 134 % of control
dose: 0.5 mg/kg/injection, schedule: Q01DX009 (ip), vehicle: saline, evaluated on day 45
  T/C: 140 % of control
dose: 0.5 mg/kg/injection, schedule: Q01DX009 (ip), vehicle: saline, evaluated on day 50
  T/C: 135 % of control
dose: 0.75 mg/kg/injection, schedule: Q01DX005 (ip), vehicle: saline
  T/C: 142 % of control
dose: 0.75 mg/kg/injection, schedule: Q01DX005 (ip), vehicle: water, evaluated on day 30
  T/C: 139 % of control
dose: 0.75 mg/kg/injection, schedule: Q01DX005 (ip), vehicle: water, evaluated on day 35
  T/C: 145 % of control
dose: 0.75 mg/kg/injection, schedule: Q01DX009 (ip), vehicle: saline
  T/C: 126, 132, 146 [5 of 6 alive], 151 [5 of 6 alive], 172, 176, 189 % of control
dose: 0.78 mg/kg/injection, schedule: Q01DX009 (ip), vehicle: saline
  T/C: 131, 137, 139 % of control
dose: 1.0 mg/kg/injection, schedule: Q01DX005 (ip), vehicle: water
  T/C: 148 % of control
dose: 1.25 mg/kg/injection, schedule: Q04DX003 (ip), vehicle: saline
  T/C: 118, 122, 132, 134, 136 % of control
dose: 1.25 mg/kg/injection, schedule: Q06HX012 (ip), vehicle: saline
  T/C: 134 and 148 % of control
dose: 1.5 mg/kg/injection, schedule: Q01DX005 (ip), vehicle: water
  T/C: 145 % of control
dose: 1.5 mg/kg/injection, schedule: Q01DX009 (ip), vehicle: saline
  T/C: 144, 159, 164, 180, 182, 190 [5 of 6 alive], 221 % of control
dose: 1.56 mg/kg/injection, schedule: Q01DX009 (ip), vehicle: saline
  T/C: 148 % of control [5 of 6 alive]
dose: 1.56 mg/kg/injection, schedule: Q01DX009 (oral), vehicle: saline
  T/C: 131 % of control
dose: 1.56 mg/kg/injection, schedule: Q04DX003 (ip), vehicle: saline
  T/C: 134 % of control
dose: 2.0 mg/kg/injection, schedule: Q01DX005 (ip), vehicle: saline
  T/C: 175, 183, 226, 232 % of control
dose: 2.5 mg/kg/injection, schedule: Q04DX003 (ip), vehicle: saline
  T/C: 117 (2×), 128, 147, 156 % of control
dose: 3.0 mg/kg/injection, schedule: Q01DX009 (ip), vehicle: saline
  T/C: 154 [5 of 6 alive], 158, 182, 223, 224, 228 [5 of 6 alive], 234 % of control
dose: 3.12 mg/kg/injection, schedule: Q01DX009 (ip), vehicle: saline
  T/C: 133 % of control
dose: 3.13 mg/kg/injection, schedule: Q01DX009 (ip), vehicle: saline
  T/C: 127 % of control
dose: 3.75 mg/kg/injection, schedule: Q04DX003 (ip), vehicle: saline
  T/C: 139 % of control
dose: 4.0 mg/kg/injection, schedule: Q01DX005 (ip), vehicle: saline
  T/C: 225, 250, 255, 291 % of control
dose: 4.0 mg/kg/injection, schedule: Q03HX024 (ip), vehicle: saline
  T/C: 129 % of control
dose: 5.0 mg/kg/injection, schedule: Q04DX003 (ip), vehicle: saline
  T/C: 140, 149, 156, 164, 168, 175, 177 % of control
dose: 6.0 mg/kg/injection, schedule: Q01DX005 (ip), vehicle: water
  survivor count: 6 of 6
dose: 6.0 mg/kg/injection, schedule: Q01DX009 (ip), vehicle: saline
  T/C: 102, 102 [5 of 6 alive], 121, 125, 130, 170 % of control
dose: 6.25 mg/kg/injection, schedule: Q01DX009 (ip), vehicle: saline
  T/C: 101, 115, 140, 194 (2×), 202, 225, 229 % of control
[1]
  T/C: 148 % of control
  survivor count: 2 of 6
dose: 6.25 mg/kg/injection, schedule: Q04DX003 (ip), vehicle: saline
  T/C: 128 % of control
dose: 8.0 mg/kg/injection, schedule: Q01DX005 (ip), vehicle: saline
  T/C: 245, 251, 270, 277 % of control
dose: 8.0 mg/kg/injection, schedule: Q03HX024 (ip), vehicle: saline
  survivor count: 2 of 8
dose: 10.0 mg/kg/injection, schedule: Q04DX003 (ip), vehicle: saline
  T/C: 175, 181, 184, 188, 194, 210, 232, 235 % of control
dose: 12.0 mg/kg/injection, schedule: Q01DX009 (ip), vehicle: saline
  survivor count: 2 of 6
dose: 12.5 mg/kg/injection, schedule: Q01DX001 (ip), vehicle: saline
  T/C: 137 and 140 % of control
dose: 12.5 mg/kg/injection, schedule: Q01DX009 (ip), vehicle: saline, evaluated on day 30
  T/C: 123, 157, 203, 211 % of control (2×)
dose: 12.5 mg/kg/injection, schedule: Q01DX009 (ip), vehicle: saline, evaluated on day 50
  T/C: 179 % of control
dose: 12.5 mg/kg/injection, schedule: Q01DX009 (ip), vehicle: saline
  survivor count: 5 of 6 and 6 of 6
dose: 12.5 mg/kg/injection, schedule: Q01DX009 (oral), vehicle: saline
  survivor count: 3 of 6
dose: 12.5 mg/kg/injection, schedule: Q04DX003 (ip), vehicle: saline
  T/C: 132 % of control (2×)
[2]
  T/C: 100, 120, 151 % of control
  survivor count: 7 of 8
dose: 20.0 mg/kg/injection, schedule: Q04DX003 (ip), vehicle: saline
  T/C: 130, 174, 178, 183, 184, 225, 229, 238, 239 % of control
dose: 25.0 mg/kg/injection, schedule: Q01DX001 (ip), vehicle: saline
  T/C: 146 % of control
dose: 25.0 mg/kg/injection, schedule: Q01DX009 (ip), vehicle: saline, evaluated on day 30
  T/C: 185 [5 of 6 alive], 200, 218, 229 % of control
dose: 25.0 mg/kg/injection, schedule: Q01DX009 (ip), vehicle: saline, evaluated on day 50
  T/C: 207 % of control
dose: 25.0 mg/kg/injection, schedule: Q04DX003 (ip), vehicle: saline
  T/C: 129 and 149 % of control
dose: 40.0 mg/kg/injection, schedule: Q04DX003 (ip), vehicle: saline
  T/C: 109, 122, 125, 126, 128, 135, 145 (2×), 161 % of control
dose: 50.0 mg/kg/injection, schedule: Q01DX009 (ip), vehicle: saline, evaluated on day 30
  T/C: 191, 244, 247, 250 % of control
dose: 50.0 mg/kg/injection, schedule: Q01DX009 (ip), vehicle: saline, evaluated on day 50
  T/C: 232 % of control
dose: 50.0 mg/kg/injection, schedule: Q04DX003 (ip), vehicle: saline
  T/C: 148 % of control
dose: 100.0 mg/kg/injection, schedule: Q01DX009 (ip), vehicle: saline, evaluated on day 30
  T/C: 180, 246, 270 % of control
dose: 100.0 mg/kg/injection, schedule: Q01DX009 (ip), vehicle: saline, evaluated on day 50
  T/C: 228 % of control
